# Source: PubChem BioAssay AID1671195 (Yale University, 2021)
# Purpose: 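Regulators of LDL receptor activity judged by labelled LDL uptake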 (primary screen)
# Cells: human Huh7 hepatoma cells
# Knock-down reagent: siRNA pool against human genes, 18 nM
# Duration: about 2 to 2.5 days of knockdown, then 8 h LDL uptake
# Treatment: DiI-labelled LDL at 30 µg/ml for 8 h, in lipoprotein-deficient serum medium
# Measured: 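Per-cell DiI-LDL intensity by automated imaging; well means scaled to the plate median and given as a robust z-score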
# Reading the numbers: robust z-score: higher = more LDL uptake after knockdown
# Hit rule: 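Active when two or more replicates show a robust z-score above 2 or below -2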
# Shown is one part, drawn at random, of about 22,000 reagents tested. About 1,510 of them (6.9%) count as active. 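Active includes knockdowns raising or lowering LDL uptake; positive z-scores mean more uptake, negative mean less.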 Unmarked entries are inactive.
Gene,"robust z-score, replicate 1","robust z-score, replicate 2","robust z-score, replicate 3"
ZNF530,-0.973,-1.16,-0.998
LANCL3,0.101,-0.282,-0.714
HDDC3,0.945,-0.0779,-0.196
DNASE2B,-1.65,-1.63,-1.92
STK17B,-1.58,-1.56,-2
CIB4,0.0559,-0.514,1.03
WDR43,0.588,2.5,0.149
DHDDS,2.81 (active),2.31,3.42
POSTN,0.147,-0.618,-0.297
TCEAL4,-0.806,-0.628,-0.924
DST,-0.17,0.0772,-0.632
CD300LD-AS1,1.83,1.84,0.988
PCDHGA9,-0.0378,0.582,0.781
ANKH,-1.13,-1.78,2.22
ZNF407,-2.17 (active),-2.21,-2.51
TMEM200A,5.56 (active),2.06,3.42
ISL1,2.23,1.66,0.738
OPLAH,-0.151,-0.091,0.156
NOS3,1.94 (active),2.17,1.6
RPS8P10,2.28 (active),2.32,1.64
LOC442007 (retired record),-0.651,0.127,-0.141
RPS6KB1,-0.641,-0.719,0.00328
SPATC1,-2.27 (active),-2.39,-2.38
LOC441769 (retired record),-0.189,-0.334,0.0835
LINC00934,2.61 (active),1.48,2.51
LOC401589,-0.474,-0.428,-0.613
CFAP276,0.874,0.805,-0.081
ZNF837,-1.69,-1.35,-1.18
TRIM41,-0.113,-0.932,-0.17
LOC442123 (retired record),-1.52,-1.65,-0.666
PPTC7,1.96,1.83,1.88
PCDHAC1,0.746,1.31,1.05
VAT1,-1.46,-1.47,-1.66
EXOC6B,0.287,0.464,-0.138
LOC441624 (retired record),-0.73,-0.565,-0.765
LOC391599 (retired record),-0.648,-0.674,-0.309
PSG2,0.243,0.416,0.842
HLA-DOB,-1.69,-0.836,-1.37
BNC2,0.934,0.424,1.2
BLVRB,0.303,0.00909,0.174
MIA,-0.188,1.36,2.57
SLC44A4,-1.78,-1.51,-1.35
FOSL1,0.14,-0.195,-0.108
PCDH20,-0.336,-0.071,-0.0822
HSH2D,-1.46,-1.95,-2
NOP53,-1.79,-0.238,0.462
RDH10,0.721,0.336,0.595
UBL7,0.293,0.344,0.237
BLMH,-0.88,0.438,-0.521
USP44,0.273,0.755,0.265
ZNF627,-1.75,-1.54,-1.05
SACK1E,0.783,1.33,-1.22
SIGIRR,-0.694,-0.855,-0.595
RAB19,-1.24,-1.19,-1.06
LOC440373 (retired record),0.721,0.712,0.374
H2AC13,-1.61,0.51,-1.2
ZBTB26,0.858,0.26,0.395
MMS19,-0.945,-0.989,-0.98
DOCK7,0.256,0.969,0.235
SLC39A13,-1.21,-0.956,-0.641
IFT20,-1.61,-0.878,-1.18
LOC441031 (retired record),0.61,0.906,1.12
UBR3,0.206,0.488,-1.33
KRT78,-1.09,-1.55,-2.06
LOC389659 (retired record),-0.0578,-0.0257,0.373
MIP,-0.165,-0.833,-0.0503
PRMT5,-0.212,1.28,-0.834
CSTB,1.11,1.3,0.572

A stretch of the results above, for reference:
Gene,"robust z-score, replicate 1","robust z-score, replicate 2","robust z-score, replicate 3"
DHDDS,2.81 (active),2.31,3.42
POSTN,0.147,-0.618,-0.297
TCEAL4,-0.806,-0.628,-0.924
DST,-0.17,0.0772,-0.632
CD300LD-AS1,1.83,1.84,0.988
